# Results: PubChem BioAssay AID2685 (National Center for Advancing Translational Sciences (NCATS), 2010)
# The list shows a part of the results. These are further read-outs of the screen, such as a control signal, another cell line or another target. No call is given for them. Compounds called inactive in the main read-out are mostly missing here. Potencies come from curve fits of mixed quality, noted in brackets.
# Assay: qHTS Assay for Lipid Storage Modulators in Drosophila S3 Cells;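 for cell number change: cells counted by Cell Tracker Red CMTPX staining in the red channel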
# Conditions: BODIPY lipid droplet fluorescence, 18-24 h; for cell number change: measured here: cell count max response, cells fed with added oleic acid
# Method in brief: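 Drosophila S3 cells loaded with oleic acid (400 uM, as added) and compounds at several concentrations; lipid droplets imaged by 488-nm laser-scanning cytometry, 500–530 nm intensity and object ratio to cell channel. Percent activity normalized to 20 uM Triacsin C.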
# [1] = measured here: lipid fluorescence (Fed channel) AC50, cells fed with added oleic acid
# [2] = measured here: cell number channel AC50, cells fed with added oleic acid
Structure (SMILES),cell number change,AC50 [1],AC50 [2]
O=C(O)c1ccc(Cn2cnc3cccnc32)cc1,-15.4%,"32.6 µM [falling, single point]",–
CCOC(=O)c1ccc(NC(=O)c2ccc(NC(=O)c3ccccc3)cc2)cc1,-16%,"0.461 µM [falling, full curve]",–
Cc1cccc(-n2c(CCc3ccccc3)nnc2SCC(=O)c2ccccc2)c1,17%,"2.31 µM [rising, full curve]",–
CCc1ccc(CNC(=O)C2CCCN(c3nn4c(=O)cc(C)nc4s3)C2)cc1 (stereo not given),21.3%,"18.4 µM [falling, single point]",–
CCOc1ccccc1NC(=S)NCCc1ccc(F)cc1,49.3%,–,–
COc1ccc(-n2c(SCC(=O)Nc3ccccc3OC)nc(O)cc2=O)cc1,-1.33%,"0.92 µM [falling, partial curve]",–
CC1CCc2c(sc3ncnc(SCC(=O)N4CCN(C(=O)c5ccco5)CC4)c23)C1 (stereo not given),-9.43%,"0.184 µM [falling, partial curve]",–
CCCc1nn(-c2cc(Cl)ccc2OC)c2c1C(=O)CCC2,–,"0.206 µM [rising, full curve]","3.26 µM [rising, partial curve]"
O=C(Nc1nnc(C2=COCCO2)o1)c1ccc(Br)cc1,-23.3%,"9.2 µM [falling, partial curve]",–
O=C(NNC(=O)c1ccc2ccccc2c1O)NC1CCCCC1,34.1%,"2.06 µM [rising, full curve]","5.17 µM [rising, partial curve]"
O=C(NC1CCCc2ccccc21)C1CCN(S(=O)(=O)c2ccccc2)CC1 (stereo not given),-20.6%,–,"0.13 µM [falling, full curve, poor fit]"
CCCn1c(N2CCN(C(=O)NCc3ccccc3)CC2)nc2ccccc21,6.11%,"3.66 µM [rising, partial curve, poor fit]",–
CCn1nc(C)cc1-c1nnc(SCC(=O)Nc2ccccc2)n1CCCOC,–,"0.00517 µM [falling, full curve, poor fit]",–
CC1CCCCC1NC(=O)c1cccc(NC2=NC3CS(=O)(=O)CC3S2)c1 (stereo not given),5.19%,"3.66 µM [rising, full curve]","0.146 µM [rising, full curve, poor fit]"
O=C(Cc1ccc(S(=O)(=O)N2CCOCC2)s1)NCCOc1ccccc1,34.5%,–,"18.4 µM [rising, single point]"
CC(=O)Nc1sc2c(c1C(c1ccccc1Cl)N1CCN(CCO)CC1)CCCC2 (stereo not given),-10.1%,"5.8 µM [falling, single point]",–
CCOCCn1cnc2sc(C(=O)NCCCN3CCOCC3)c(C)c2c1=O,-9.73%,"3.66 µM [falling, partial curve]",–
Cc1cc(C)c2c(c1)c(C)cc1nnc(SCC(=O)c3cccs3)n12,33.2%,"1.84 µM [rising, single point]","9.2 µM [rising, partial curve, poor fit]"
Cc1cccc(NC(=O)CN(CC2CCCO2)C(=O)c2cc3ccccc3o2)c1C (stereo not given),-21.4%,–,–
Cc1cc(N2CCOCC2)nc2ccc(NC(=O)C3CCC(C)CC3)cc12 (stereo not given),5%,"0.231 µM [rising, full curve, poor fit]",–

Structure (SMILES),cell number change,AC50 [1],AC50 [2]
N#Cc1ccc(COC(=O)C2CCC(=O)N2)cc1 (stereo not given),-92.7%,–,"20.6 µM [falling, single point]"
CCOc1ccccc1-c1noc(CCC(=O)NC2CCCCC2)n1,-1.32%,"6.31 µM [falling, single point]","6.51 µM [rising, single point]"
Cc1cc(=O)[nH]c(Nc2c(C)n(C)n(-c3ccccc3)c2=O)n1,2.83%,"1.46 µM [falling, full curve, poor fit]",–
COc1ccc(C)cc1NC(=O)CSCc1cc(=O)n2c(C)csc2n1,-23%,–,–
COc1ccc(-c2c3c(=O)n(C)c(=O)n(C)c3cn2-c2ccc(O)cc2)cc1,16.3%,–,–
Cc1ccc[n+](CC2OCc3ccccc3CO2)c1,-23.3%,"18.4 µM [falling, single point]",–
CC(NC(=O)C1CCC(C(=O)NC(C)c2ccccc2)CC1)c1ccccc1 (stereo not given),-4.5%,"29.1 µM [rising, single point]","0.058 µM [rising, full curve, poor fit]"
N#Cc1nc(-c2ccc(OCc3ccc(Cl)cc3)cc2)oc1NCc1cccnc1,12.9%,"0.259 µM [rising, full curve, poor fit]",–
N#Cc1ccc(N2CCN(C(=O)c3cccs3)CC2)c(F)c1,-6.35%,"0.82 µM [rising, single point]",–
COc1cccc(C(NC(C)=O)c2ccc3cccnc3c2O)c1 (stereo not given),8.74%,–,"4.11 µM [rising, single point]"
C/C(=N/NC(=O)c1ccoc1C)C12CC3CC(CC(C3)C1)C2,-17.9%,–,"0.103 µM [falling, full curve, poor fit]"
Cc1ccc(S(=O)(=O)N2CC(O)CC2C(=O)OCc2nc3sc(C)c(C)c3c(=O)[nH]2)cc1 (stereo not given),7.32%,"14.6 µM [rising, single point]",–
CC1(C)c2ccccc2N2CC(=O)NC21/C=C/c1ccco1 (stereo not given),–,"23.1 µM [falling, partial curve]","0.731 µM [falling, single point]"
CCCCOc1ccc(C2(C)NC(=O)N(C)C2=O)cc1 (stereo not given),-1.1%,"29.1 µM [falling, single point]",–
CC(Oc1ccc(Cl)cc1Cl)C(=O)Nc1cccnc1 (stereo not given),-23.1%,"29.1 µM [falling, single point]",–
Cc1ccc(S(=O)(=O)N(C)C)cc1NC(=O)c1ccc(-n2cncn2)c([N+](=O)[O-])c1,-0.129%,"0.00461 µM [rising, full curve, poor fit]",–
Cc1onc(-c2c(F)cccc2Cl)c1C(=O)c1ccccc1,-54.7%,"29.1 µM [falling, single point]","29.1 µM [falling, single point]"
Cc1ccc(NC(=O)c2cccc(S(=O)(=O)N(C)c3ccccc3)c2)cc1S(=O)(=O)N1CCOCC1,-3.23%,–,–
Cc1cc(Br)ccc1NC(=O)CN(C)C(=O)C1CCN(C(=O)c2ccc(F)cc2)CC1,32.5%,–,"1.64 µM [rising, partial curve]"
Cn1c(O)c(C2=c3ccccc3=NC2=O)sc1=Nc1ccc(Cl)cc1,-25.3%,"29.1 µM [falling, single point]",–

Structure (SMILES),cell number change,AC50 [1],AC50 [2]
O=c1cc(-c2ccc(Cl)cc2)nc(N2CCN(c3ccccc3)CC2)[nH]1,0.529%,–,–
CC[N+](CC)(CC)CCCCOc1ccc2c(c1)C(=O)c1cc(OCCCC[N+](CC)(CC)CC)ccc1-2,0.961%,–,–
COC(c1ccccc1)c1nnc(CCC(=O)N(C)CCOc2ccccc2)o1 (stereo not given),-17.2%,–,–
Cc1cccc(-c2noc(CCCC(=O)Nc3ccc(C(N)=O)cc3)n2)c1,15.1%,"1.84 µM [rising, partial curve]","2.31 µM [rising, partial curve]"
NS(=O)(=O)c1cccc(NC(=S)NC(=O)C23CC4CC(CC(C4)C2)C3)c1,-18.3%,–,–
COC(=O)c1ccccc1NC(=O)CSc1nnc(C(CO)NC(=O)c2ccccc2)n1C (stereo not given),-0.413%,–,"0.461 µM [falling, single point]"
NS(=O)(=O)c1ccc(CCNC(=O)c2ccc([N+](=O)[O-])cc2[N+](=O)[O-])cc1,113%,"8.2 µM [rising, partial curve, poor fit]","16.4 µM [rising, partial curve]"
COc1ccccc1NC(=O)c1ccc2c(O)c(S(=O)(=O)c3ccccc3)c(=O)[nH]c2c1,36.1%,–,"0.92 µM [rising, full curve, poor fit]"
CNc1nc(Cl)c(SC)c(NCc2ccc(F)cc2)n1,-3.42%,"2.31 µM [rising, partial curve]",–
CC1(C)CC(=O)C(N=Nc2cc(S(=O)(=O)N3CCOCC3)ccc2Cl)=C(O)C1,-40.7%,"8.2 µM [falling, partial curve]","29.1 µM [falling, single point]"
O=C(O)c1cc2c(cn1)[nH]c1ccccc12,38.7%,–,"29.1 µM [rising, single point]"
COc1ccccc1CCNC(=O)c1nccnc1C(=O)O,-11.5%,"3.26 µM [falling, full curve, poor fit]",–
CC(C)CCNC(=O)NC(=O)COC(=O)CCN=C1NS(=O)(=O)c2ccccc21,30.6%,"4.61 µM [falling, single point]","29.1 µM [rising, single point]"
CCn1c(C)nc2cc(C(=O)NNC(=O)Nc3cccc(Cl)c3)ccc21,-5.97%,–,"0.651 µM [falling, full curve, poor fit]"
CCN(CC)C(=O)CSc1nc2cccnc2n1-c1ccccc1OC,79.8%,"7.31 µM [rising, partial curve]","8.2 µM [rising, partial curve]"
COc1ccc([N+](=O)[O-])cc1NC(=O)CS(=O)(=O)c1ccc(C)cc1,–,"7.31 µM [rising, single point]",–
CCc1ccc2nc(NC(=O)Cn3cnc4ccccc4c3=O)sc2c1,–,"2.06 µM [rising, partial curve]",–
Cc1cc(C(=O)OC(C)C(=O)N2CCc3ccccc32)ccc1[N+](=O)[O-] (stereo not given),30.8%,–,"0.184 µM [rising, full curve, poor fit]"

# A run of entries taken from the entries so far:
Structure (SMILES),cell number change,AC50 [1],AC50 [2]
Cc1cccc(-c2noc(CCCC(=O)Nc3ccc(C(N)=O)cc3)n2)c1,15.1%,"1.84 µM [rising, partial curve]","2.31 µM [rising, partial curve]"
NS(=O)(=O)c1cccc(NC(=S)NC(=O)C23CC4CC(CC(C4)C2)C3)c1,-18.3%,–,–
COC(=O)c1ccccc1NC(=O)CSc1nnc(C(CO)NC(=O)c2ccccc2)n1C (stereo not given),-0.413%,–,"0.461 µM [falling, single point]"
NS(=O)(=O)c1ccc(CCNC(=O)c2ccc([N+](=O)[O-])cc2[N+](=O)[O-])cc1,113%,"8.2 µM [rising, partial curve, poor fit]","16.4 µM [rising, partial curve]"
